The record followed here is PMC8043124 (ACS Infectious Diseases, 2021).

Assay [1] relates to P. aeruginosa (strain PA14). Put plainly: Checkerboard assay of potentiator-antibiotic pairs. As to conditions: breakpoints for Gram-positive species (EUCAST). Format: cell-based, Pseudomonas aeruginosa.
The subject of assay [2] is P. aeruginosa clinical isolates (BWH006, BWH012, BWH013, BWH021, BWH027). Put plainly: Checkerboard assay of potentiator-antibiotic pairs in clinical isolates. The format is cell-based, Pseudomonas aeruginosa.

Take `CCC[C@@H]1C[C@@H](C(=O)N[C@@H]([C@H]2O[C@H](SC)[C@H](O)[C@@H](O)[C@H]2O)[C@H](C)Cl)N(C)C1` [clindamycin]: the “Antibiotic MIC with WD40 relative to clinical breakpoint” value is given as “clinical breakpoints were met” in assay [1] and “did not meet their clinical breakpoints” in assay [2] (10 μM WD40, MIC95, breakpoints for Gram-positive species (EUCAST)). For the same compound, in assay [2] (range over isolates, Figure 6 names MIC95), the “MIC of antibiotic alone” value lay within 1024 to 2048 µg/mL.
